{"sequences": {"note": "The chains behind the UniProt entries cited, without tags or fusion partners. Where a name states a change or a piece, a line headed by the entry shows the natural chain unless it says otherwise.", "UniProt O43597": "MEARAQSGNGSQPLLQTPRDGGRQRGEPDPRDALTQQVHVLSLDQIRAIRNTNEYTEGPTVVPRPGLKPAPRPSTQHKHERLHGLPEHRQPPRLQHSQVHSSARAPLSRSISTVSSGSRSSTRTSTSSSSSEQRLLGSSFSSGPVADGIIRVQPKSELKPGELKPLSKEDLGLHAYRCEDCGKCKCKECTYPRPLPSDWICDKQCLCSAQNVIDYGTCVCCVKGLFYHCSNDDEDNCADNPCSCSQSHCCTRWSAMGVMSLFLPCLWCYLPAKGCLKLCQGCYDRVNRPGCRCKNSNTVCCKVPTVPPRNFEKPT", "UniProt Q9Y5W9": "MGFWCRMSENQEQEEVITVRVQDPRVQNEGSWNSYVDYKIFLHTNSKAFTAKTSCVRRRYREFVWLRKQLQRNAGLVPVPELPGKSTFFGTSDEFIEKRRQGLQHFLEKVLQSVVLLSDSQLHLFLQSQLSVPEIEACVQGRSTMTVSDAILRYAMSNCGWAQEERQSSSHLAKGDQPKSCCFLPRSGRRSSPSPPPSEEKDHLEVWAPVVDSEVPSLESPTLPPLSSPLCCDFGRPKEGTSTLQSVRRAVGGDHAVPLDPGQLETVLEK", "UniProt Q8WW59": "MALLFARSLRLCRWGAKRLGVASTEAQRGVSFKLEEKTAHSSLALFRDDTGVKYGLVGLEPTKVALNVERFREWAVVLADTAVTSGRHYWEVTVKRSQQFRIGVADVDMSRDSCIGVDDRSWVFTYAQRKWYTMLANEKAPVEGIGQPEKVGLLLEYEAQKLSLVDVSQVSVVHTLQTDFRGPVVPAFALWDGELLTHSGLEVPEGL", "UniProt O94768": "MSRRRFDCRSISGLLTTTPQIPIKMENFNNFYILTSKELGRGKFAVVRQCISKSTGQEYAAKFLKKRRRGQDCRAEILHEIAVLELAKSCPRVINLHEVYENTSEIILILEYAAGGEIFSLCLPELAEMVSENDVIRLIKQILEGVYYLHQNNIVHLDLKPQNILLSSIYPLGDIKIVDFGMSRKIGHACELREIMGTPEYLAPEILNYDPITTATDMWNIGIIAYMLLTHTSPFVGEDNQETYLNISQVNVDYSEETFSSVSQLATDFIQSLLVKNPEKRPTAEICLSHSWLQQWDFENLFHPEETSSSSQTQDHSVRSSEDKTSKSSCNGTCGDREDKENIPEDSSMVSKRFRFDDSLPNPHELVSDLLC", "UniProt O95295": "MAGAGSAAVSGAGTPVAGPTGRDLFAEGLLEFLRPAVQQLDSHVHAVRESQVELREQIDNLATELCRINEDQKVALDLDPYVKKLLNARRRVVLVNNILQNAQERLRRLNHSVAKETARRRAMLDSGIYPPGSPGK", "UniProt Q8NHG7": "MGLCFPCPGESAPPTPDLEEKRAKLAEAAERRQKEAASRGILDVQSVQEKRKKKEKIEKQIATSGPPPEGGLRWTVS", "UniProt O95149, whole entry": "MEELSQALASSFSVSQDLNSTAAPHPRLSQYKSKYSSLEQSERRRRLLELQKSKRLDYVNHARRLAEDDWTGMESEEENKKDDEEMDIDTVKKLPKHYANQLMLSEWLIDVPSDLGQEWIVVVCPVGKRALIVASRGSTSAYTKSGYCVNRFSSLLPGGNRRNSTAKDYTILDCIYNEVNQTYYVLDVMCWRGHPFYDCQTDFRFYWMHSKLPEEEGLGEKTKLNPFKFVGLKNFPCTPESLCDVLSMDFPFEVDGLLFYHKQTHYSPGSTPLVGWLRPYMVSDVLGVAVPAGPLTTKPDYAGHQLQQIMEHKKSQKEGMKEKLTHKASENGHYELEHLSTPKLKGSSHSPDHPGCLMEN", "UniProt P56962": "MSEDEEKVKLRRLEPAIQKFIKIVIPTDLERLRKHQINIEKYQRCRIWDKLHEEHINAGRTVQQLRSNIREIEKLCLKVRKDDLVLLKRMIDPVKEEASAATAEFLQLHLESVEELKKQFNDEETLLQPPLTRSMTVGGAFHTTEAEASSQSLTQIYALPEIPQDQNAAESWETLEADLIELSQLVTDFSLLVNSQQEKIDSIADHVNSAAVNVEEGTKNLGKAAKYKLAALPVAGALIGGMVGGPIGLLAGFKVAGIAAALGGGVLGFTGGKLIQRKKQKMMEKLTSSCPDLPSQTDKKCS", "UniProt Q00796": "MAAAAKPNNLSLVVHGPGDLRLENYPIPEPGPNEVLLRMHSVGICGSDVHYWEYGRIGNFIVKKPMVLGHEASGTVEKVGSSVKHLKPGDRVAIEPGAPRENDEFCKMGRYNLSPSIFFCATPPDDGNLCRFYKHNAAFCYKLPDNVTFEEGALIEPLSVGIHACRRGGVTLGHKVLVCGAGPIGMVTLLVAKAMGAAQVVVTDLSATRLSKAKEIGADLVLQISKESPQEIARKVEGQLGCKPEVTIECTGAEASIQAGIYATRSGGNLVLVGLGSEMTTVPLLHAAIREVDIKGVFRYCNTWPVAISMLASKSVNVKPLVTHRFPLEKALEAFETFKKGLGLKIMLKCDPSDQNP", "UniProt P42224": "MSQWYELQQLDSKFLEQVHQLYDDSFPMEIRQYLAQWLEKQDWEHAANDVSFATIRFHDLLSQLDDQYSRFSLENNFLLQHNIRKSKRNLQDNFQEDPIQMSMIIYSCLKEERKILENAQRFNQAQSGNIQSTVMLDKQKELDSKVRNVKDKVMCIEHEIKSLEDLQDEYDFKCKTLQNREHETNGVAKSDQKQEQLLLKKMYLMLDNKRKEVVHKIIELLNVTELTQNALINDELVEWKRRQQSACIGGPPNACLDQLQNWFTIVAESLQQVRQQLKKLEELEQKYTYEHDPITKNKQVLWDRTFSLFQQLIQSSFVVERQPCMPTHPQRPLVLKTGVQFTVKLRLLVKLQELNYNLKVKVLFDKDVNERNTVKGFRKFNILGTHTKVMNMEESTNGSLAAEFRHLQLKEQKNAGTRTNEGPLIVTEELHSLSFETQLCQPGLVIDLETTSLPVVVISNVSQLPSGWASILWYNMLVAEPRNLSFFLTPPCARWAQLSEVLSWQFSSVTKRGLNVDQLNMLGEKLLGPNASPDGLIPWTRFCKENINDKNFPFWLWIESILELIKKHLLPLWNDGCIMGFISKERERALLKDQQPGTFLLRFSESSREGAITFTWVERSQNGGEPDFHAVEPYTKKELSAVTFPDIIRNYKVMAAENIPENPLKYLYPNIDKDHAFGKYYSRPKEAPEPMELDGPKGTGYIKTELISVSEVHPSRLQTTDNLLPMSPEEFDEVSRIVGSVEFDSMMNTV", "UniProt Q6P1X5, whole entry": "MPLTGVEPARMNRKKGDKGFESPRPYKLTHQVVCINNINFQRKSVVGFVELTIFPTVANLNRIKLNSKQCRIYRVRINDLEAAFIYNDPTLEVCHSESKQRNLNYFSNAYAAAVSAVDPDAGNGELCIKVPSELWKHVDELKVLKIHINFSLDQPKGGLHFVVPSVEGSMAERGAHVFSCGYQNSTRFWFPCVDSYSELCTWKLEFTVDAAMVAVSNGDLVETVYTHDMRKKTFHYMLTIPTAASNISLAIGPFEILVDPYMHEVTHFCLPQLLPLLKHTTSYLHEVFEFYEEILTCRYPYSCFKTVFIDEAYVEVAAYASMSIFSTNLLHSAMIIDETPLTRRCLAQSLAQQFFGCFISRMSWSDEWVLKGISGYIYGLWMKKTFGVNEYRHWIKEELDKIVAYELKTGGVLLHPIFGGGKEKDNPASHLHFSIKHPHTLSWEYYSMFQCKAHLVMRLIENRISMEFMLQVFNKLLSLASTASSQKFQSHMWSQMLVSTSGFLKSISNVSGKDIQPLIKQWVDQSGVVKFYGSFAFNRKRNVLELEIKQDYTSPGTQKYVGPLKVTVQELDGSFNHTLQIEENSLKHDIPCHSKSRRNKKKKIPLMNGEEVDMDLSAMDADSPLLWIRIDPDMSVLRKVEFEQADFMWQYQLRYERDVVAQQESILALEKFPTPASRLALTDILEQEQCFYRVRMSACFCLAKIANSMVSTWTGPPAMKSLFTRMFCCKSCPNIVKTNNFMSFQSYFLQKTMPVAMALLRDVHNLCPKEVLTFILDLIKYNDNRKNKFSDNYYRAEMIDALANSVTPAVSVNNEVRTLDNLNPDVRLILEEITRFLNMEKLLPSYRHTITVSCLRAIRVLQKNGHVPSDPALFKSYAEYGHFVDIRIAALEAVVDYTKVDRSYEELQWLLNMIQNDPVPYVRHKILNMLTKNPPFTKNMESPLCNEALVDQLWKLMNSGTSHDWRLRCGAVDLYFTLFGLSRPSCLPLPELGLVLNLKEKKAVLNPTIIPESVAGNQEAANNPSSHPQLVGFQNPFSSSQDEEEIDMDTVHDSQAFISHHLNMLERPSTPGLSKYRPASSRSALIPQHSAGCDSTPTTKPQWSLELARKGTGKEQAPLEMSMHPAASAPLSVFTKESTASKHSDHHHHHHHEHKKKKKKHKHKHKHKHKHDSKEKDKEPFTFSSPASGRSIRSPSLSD", "UniProt O60499": "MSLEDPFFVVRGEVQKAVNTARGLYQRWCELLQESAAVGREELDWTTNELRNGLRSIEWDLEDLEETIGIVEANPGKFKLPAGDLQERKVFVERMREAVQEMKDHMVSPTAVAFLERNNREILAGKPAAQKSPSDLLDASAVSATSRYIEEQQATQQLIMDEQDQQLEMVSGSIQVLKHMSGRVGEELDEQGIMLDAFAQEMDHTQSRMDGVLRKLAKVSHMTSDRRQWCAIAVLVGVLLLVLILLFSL", "UniProt Q8NBK3": "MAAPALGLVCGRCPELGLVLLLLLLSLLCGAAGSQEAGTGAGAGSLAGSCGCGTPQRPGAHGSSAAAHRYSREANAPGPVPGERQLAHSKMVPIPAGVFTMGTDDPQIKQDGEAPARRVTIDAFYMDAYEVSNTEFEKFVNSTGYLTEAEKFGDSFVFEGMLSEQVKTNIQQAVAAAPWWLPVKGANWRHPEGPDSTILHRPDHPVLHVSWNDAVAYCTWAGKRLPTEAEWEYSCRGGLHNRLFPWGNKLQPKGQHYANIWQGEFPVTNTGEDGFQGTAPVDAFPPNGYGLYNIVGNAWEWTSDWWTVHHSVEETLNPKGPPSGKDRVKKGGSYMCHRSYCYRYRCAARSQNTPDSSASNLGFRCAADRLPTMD", "UniProt Q9UHB9": "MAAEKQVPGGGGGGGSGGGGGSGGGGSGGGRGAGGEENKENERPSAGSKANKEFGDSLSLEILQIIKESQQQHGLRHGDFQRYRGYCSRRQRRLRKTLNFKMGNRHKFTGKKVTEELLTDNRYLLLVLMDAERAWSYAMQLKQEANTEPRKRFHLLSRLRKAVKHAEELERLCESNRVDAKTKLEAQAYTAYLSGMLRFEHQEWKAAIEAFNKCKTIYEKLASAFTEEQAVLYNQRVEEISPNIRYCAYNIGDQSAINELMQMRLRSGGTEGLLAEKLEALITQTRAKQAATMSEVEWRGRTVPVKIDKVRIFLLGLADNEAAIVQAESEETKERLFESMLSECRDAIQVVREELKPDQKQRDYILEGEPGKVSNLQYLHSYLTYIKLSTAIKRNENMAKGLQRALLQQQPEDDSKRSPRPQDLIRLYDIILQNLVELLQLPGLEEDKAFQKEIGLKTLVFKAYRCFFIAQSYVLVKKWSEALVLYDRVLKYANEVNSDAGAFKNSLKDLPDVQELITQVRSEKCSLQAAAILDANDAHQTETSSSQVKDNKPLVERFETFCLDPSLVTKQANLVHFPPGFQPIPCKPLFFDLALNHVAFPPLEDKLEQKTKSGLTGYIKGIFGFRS", "UniProt P19623": "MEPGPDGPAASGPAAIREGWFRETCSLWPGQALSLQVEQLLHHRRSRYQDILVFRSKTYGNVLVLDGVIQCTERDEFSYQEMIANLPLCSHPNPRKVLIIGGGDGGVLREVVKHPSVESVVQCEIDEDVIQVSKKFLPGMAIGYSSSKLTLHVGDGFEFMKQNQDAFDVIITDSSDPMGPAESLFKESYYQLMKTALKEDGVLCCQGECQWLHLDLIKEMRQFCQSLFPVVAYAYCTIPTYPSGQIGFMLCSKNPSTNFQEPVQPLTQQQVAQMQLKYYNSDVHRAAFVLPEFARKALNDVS", "UniProt Q8IYJ3": "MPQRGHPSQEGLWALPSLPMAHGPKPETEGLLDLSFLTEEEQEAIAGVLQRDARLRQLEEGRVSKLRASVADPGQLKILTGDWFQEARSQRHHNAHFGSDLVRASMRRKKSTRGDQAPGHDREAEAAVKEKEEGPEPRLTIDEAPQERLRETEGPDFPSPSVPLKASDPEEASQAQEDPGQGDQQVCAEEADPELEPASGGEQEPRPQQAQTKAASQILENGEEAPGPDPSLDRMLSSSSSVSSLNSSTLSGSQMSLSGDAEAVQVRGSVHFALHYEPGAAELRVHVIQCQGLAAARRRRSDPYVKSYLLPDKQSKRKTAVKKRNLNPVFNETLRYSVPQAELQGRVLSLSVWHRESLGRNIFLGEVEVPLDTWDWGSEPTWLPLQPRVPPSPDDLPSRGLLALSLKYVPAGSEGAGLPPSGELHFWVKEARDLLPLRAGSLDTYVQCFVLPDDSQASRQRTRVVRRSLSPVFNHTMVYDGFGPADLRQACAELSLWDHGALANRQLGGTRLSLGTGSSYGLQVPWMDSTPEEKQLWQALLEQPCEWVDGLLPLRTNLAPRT"}, "source": "the supplement of paper PMC7666118", "note": "Some of the results follow."}
{"compound": "COc1ccc(Cn2ccc3ccc(C(=O)NO)cc32)cc1", "test": "dose-dependent thermal stabilisation call (2D-TPP, DLPTP, 10% FDR) (binary (1 = stabilised)); higher = stabilised by the compound", "settings": "system: HL-60 intact cells; concentration range 0.04-10 µM"}
{"target": "TAF5L (UniProt O75529)", "dose-dependent thermal stabilisation call": "inactive: 0"}
{"target": "SPRY2 (UniProt O43597)", "dose-dependent thermal stabilisation call": "inactive: 0"}
{"target": "STYX (UniProt Q8WUJ0)", "dose-dependent thermal stabilisation call": "inactive: 0"}
{"target": "SNRNP200 (UniProt O75643)", "dose-dependent thermal stabilisation call": "inactive: 0"}
{"target": "SNX11 (UniProt Q9Y5W9)", "dose-dependent thermal stabilisation call": "inactive: 0"}
{"target": "SPRYD4 (UniProt Q8WW59)", "dose-dependent thermal stabilisation call": "inactive: 0"}
{"target": "SRPRB (UniProt Q9Y5M8)", "dose-dependent thermal stabilisation call": "inactive: 0"}
{"target": "STK17B (UniProt O94768)", "dose-dependent thermal stabilisation call": "inactive: 0"}
{"target": "SPTY2D1 (UniProt Q68D10)", "dose-dependent thermal stabilisation call": "inactive: 0"}
{"target": "SNAPIN (UniProt O95295)", "dose-dependent thermal stabilisation call": "inactive: 0"}
{"target": "SVIP (UniProt Q8NHG7)", "dose-dependent thermal stabilisation call": "inactive: 0"}
{"target": "STRBP (UniProt Q96SI9)", "dose-dependent thermal stabilisation call": "inactive: 0"}
{"target": "STARD3 (UniProt Q14849)", "dose-dependent thermal stabilisation call": "inactive: 0"}
{"target": "STT3B (UniProt Q8TCJ2)", "dose-dependent thermal stabilisation call": "inactive: 0"}
{"target": "SUCLG2 (UniProt Q96I99)", "dose-dependent thermal stabilisation call": "inactive: 0"}
{"target": "SNUPN (UniProt O95149)", "dose-dependent thermal stabilisation call": "inactive: 0"}
{"target": "SURF2 (UniProt Q15527)", "dose-dependent thermal stabilisation call": "inactive: 0"}
{"target": "TAF15 (UniProt Q92804)", "dose-dependent thermal stabilisation call": "inactive: 0"}
{"target": "SMARCC1 (UniProt Q92922)", "dose-dependent thermal stabilisation call": "inactive: 0"}
{"target": "STX17 (UniProt P56962)", "dose-dependent thermal stabilisation call": "inactive: 0"}
{"target": "SORD (UniProt Q00796)", "dose-dependent thermal stabilisation call": "inactive: 0"}
{"target": "STAT1 (UniProt P42224)", "dose-dependent thermal stabilisation call": "inactive: 0"}
{"target": "STRN4 (UniProt Q9NRL3)", "dose-dependent thermal stabilisation call": "inactive: 0"}
{"target": "TAF2 (UniProt Q6P1X5)", "dose-dependent thermal stabilisation call": "inactive: 0"}
{"target": "STX10 (UniProt O60499)", "dose-dependent thermal stabilisation call": "inactive: 0"}
{"target": "SURF1 (UniProt Q15526)", "dose-dependent thermal stabilisation call": "inactive: 0"}
{"target": "SPNS1 (UniProt Q9H2V7)", "dose-dependent thermal stabilisation call": "inactive: 0"}
{"target": "SUMF1 (UniProt Q8NBK3)", "dose-dependent thermal stabilisation call": "inactive: 0"}
{"target": "SLC7A6 (UniProt Q92536)", "dose-dependent thermal stabilisation call": "inactive: 0"}
{"target": "SNTB1 (UniProt Q13884)", "dose-dependent thermal stabilisation call": "inactive: 0"}
{"target": "SRP68 (UniProt Q9UHB9)", "dose-dependent thermal stabilisation call": "inactive: 0"}
{"target": "SMPD4 (UniProt Q9NXE4)", "dose-dependent thermal stabilisation call": "inactive: 0"}
{"target": "TAF6 (UniProt P49848)", "dose-dependent thermal stabilisation call": "inactive: 0"}
{"target": "SRM (UniProt P19623)", "dose-dependent thermal stabilisation call": "inactive: 0"}
{"target": "SYTL1 (UniProt Q8IYJ3)", "dose-dependent thermal stabilisation call": "inactive: 0"}
{"target": "TACC3 (UniProt Q9Y6A5)", "dose-dependent thermal stabilisation call": "inactive: 0"}
{"target": "SPAG5 (UniProt Q96R06)", "dose-dependent thermal stabilisation call": "inactive: 0"}
